# From the supplement of paper PMC5949888
# Most values lie at the floor of the assay. Slopes are relative: functional sequences can read slightly below zero.
# System: Saccharomyces cerevisiae PS128 hsf1 delta, HSF1(1-493) fusion
# Assay: growth estimate (transactivation domain function in HSF1 fusion, heat-shock survival) (a.u. (slope of normalised read count over time)); higher = stronger growth at 37°C, i.e. more transactivation activity
# Settings: library: random library
# Method: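 Random 60-nt DNA library encoding peptides of up to 20 aa, fused to the C-terminus of yeast HSF1 residues 1-493 (C-terminal TAD deleted) and expressed from the native HSF1 promoter on a CEN plasmid in hsf1-deleted S. cerevisiae PS128. Cells were selected at 37°C on -trp 5-FOA plates for 0, 2, 4, 6 and 8 days and amplicons were sequenced. Growth estimate is the slope of a robust linear fit of total-sum-normalised read counts (normalised to the first time point) over time, using at least 2 replicates. Sequences are classed functional (TAD activity) above a threshold of -0.13, set from stop-codon control sequences.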
row,Substance,growth estimate
1,FTTFGFGRGMCATSQAAATF,< -0.25
2,FTTRASASAACTCCIRQRRR,< -0.25
3,FTYHT,< -0.25
4,FTYRRLIVLSGRYQHSLRRN,< -0.25
5,FTYYFRCRCFAPNHVLLDG,< -0.25
6,FVATHHTRVRLADTHSLSRR,< -0.25
7,FVCCLRCLKGIVHVSIFDLC,< -0.25
8,FVDLRRREYSMNSSLIFRRQ,< -0.25
9,FVDTAHCLASTGYRTAHEGK,< -0.25
10,FVGGLGGCHMFVLNALERCT,< -0.25
11,FVGPVVYYLQDSSILNRSSM,< -0.25
12,FVGWARREWGRATLHLHG,< -0.25
13,FVHAAGAMVERDVESSRGPR,< -0.25
14,FVHGRRSR,< -0.25
15,FVIIGELSLGGNGGVTSLCE,< -0.25
16,FVILLVLYLGLRLSVKGRSF,< -0.25
17,FVKNSLAPVR,< -0.25
18,FVKQFRHQCQAEDVTCRRRT,< -0.25
19,FVKT,< -0.25
20,FVLRIM,< -0.25
21,FVLRPVFPMSLRNCLGVRDR,< -0.25
22,FVLSLAYCPRRS,< -0.25
23,FVLTRSIGGRAA,< -0.25
24,FVPIEPTQIGIVLYETSGCV,< -0.25
25,FVQHVELSVSLLRLVGPHGT,< -0.25

row,Substance,growth estimate
1,FVSQASFVRAGSPGSG,< -0.25
2,FVSYILTVSVGRRKYTNSRL,< -0.25
3,FVV,< -0.25
4,FVVKFSTRSYAQKSKARSGD,< -0.25
5,FVVRNLIRHSSLPGIERTGR,-0.25
6,FWALKYVAAAQ,< -0.25
7,FWALNANT,< -0.25
8,FWELKGFNSILHRKDTFSPV,< -0.25
9,FWGRLPYEESHIR,< -0.25
10,FWKRPAMESLCSERCGTCAT,< -0.25
11,FWQLDTLRGSLSVRWV,< -0.25
12,FWRHRPPI,< -0.25
13,FWTNVVTIRGVQSRCDASSL,< -0.25
14,FWTTGHMAYSYGSCSKSGPG,< -0.25
15,FYACRVDCMLLLDLRIF,< -0.25
16,FYCLSREGKSS,< -0.25
17,FYDSAAPVRTFQLRLRVVRP,< -0.25
18,FYDVNVTSGDRGVCKRFIAN,< -0.25
19,FYFQLMKAWFCW,< -0.25
20,FYGNDFYGIWVRTQVYR,< -0.25
21,FYGVV,< -0.25
22,FYHDSINFRVTEYWF,< -0.25
23,FYHNLRHHWNSIT,< -0.25
24,FYNA,< -0.25
25,FYRWATPGWYPTPLCV,< -0.25

row,Substance,growth estimate
1,GAAGLHTQMR,< -0.25
2,GAASQYRLELRYGGKRAKVY,< -0.25
3,GAAYSAAVWFGGWARMVTEL,< -0.25
4,GADGRVFYS,< -0.25
5,GAEETMGC,< -0.25
6,GAF,< -0.25
7,GAFVVEASRLTFVNLVGWAL,< -0.25
8,GAGQ,< -0.25
9,GAGSECLRQPRTTDGISESV,< -0.25
10,GAGVGSSPWVS,-0.215
11,GAHGCTGQRHSSEVSALKGR,< -0.25
12,GAIKRNLLNLTVCHSGNVVD,< -0.25
13,GAILNHNARL,< -0.25
14,GAISDVNQKTGPLAYAGNHH,< -0.25
15,GAISGWMKSGYQVVTSAFHG,< -0.25
16,GAISTLSRRVRINLAKCTYE,< -0.25
17,GAISVRGTPLPHPCAQVTLC,< -0.25
18,GAIVVT,< -0.25
19,GALSC,0.128
20,GAPEGHLQSPLTSLGYTSVL,< -0.25
21,GAPGQ,< -0.25
22,GARGVTGHTGQ,< -0.25
23,GARSLDSAGEAQFRMD,< -0.25
24,GARSLGR,< -0.25
25,GARVKHTRTASRFFMSRSSG,< -0.25

row,Substance,growth estimate
1,GARVTALV,< -0.25
2,GASCPWAVIRWTGIVLVSRM,< -0.25
3,GASGVAGGDAISEARFGQ,< -0.25
4,GASPLVVEGDHIMGSCEISR,< -0.25
5,GASRVP,< -0.25
6,GASVRH,< -0.25
7,GASWGSVSS,< -0.25
8,GATAPDLCWKPLWAANQYPC,< -0.25
9,GATARF,< -0.25
10,GATGRALLVTGRAC,< -0.25
11,GAVGTYRRLK,< -0.25
12,GAVSRLTGKPRCESGSEEAH,< -0.25
13,GAWVRLEG,< -0.25
14,GCAVLFPTVWWPTVRGESVT,< -0.25
15,GCCRDLAWVAD,< -0.25
16,GCDRE,< -0.25
17,GCDSSLDDGDRV,< -0.25
18,GCDTLTRLFARCRSSLARDR,< -0.25
19,GCEFDTRKLALFERITG,< -0.25
20,GCFHGS,< -0.25
21,GCFLH,< -0.25
22,GCFLRPPGSFQELLLISVVI,< -0.25
23,GCGLRAAC,< -0.25
24,GCGRG,< -0.25
25,GCGSYEKNANP,< -0.25

# In another format: entries from further up.
row | Substance | growth estimate
20 | GAPEGHLQSPLTSLGYTSVL | < -0.25
21 | GAPGQ | < -0.25
22 | GARGVTGHTGQ | < -0.25
23 | GARSLDSAGEAQFRMD | < -0.25
25 | GARVKHTRTASRFFMSRSSG | < -0.25
1 | GARVTALV | < -0.25
2 | GASCPWAVIRWTGIVLVSRM | < -0.25
3 | GASGVAGGDAISEARFGQ | < -0.25
4 | GASPLVVEGDHIMGSCEISR | < -0.25
5 | GASRVP | < -0.25
6 | GASVRH | < -0.25
7 | GASWGSVSS | < -0.25
9 | GATARF | < -0.25
10 | GATGRALLVTGRAC | < -0.25
11 | GAVGTYRRLK | < -0.25
12 | GAVSRLTGKPRCESGSEEAH | < -0.25
13 | GAWVRLEG | < -0.25
14 | GCAVLFPTVWWPTVRGESVT | < -0.25
15 | GCCRDLAWVAD | < -0.25
16 | GCDRE | < -0.25
17 | GCDSSLDDGDRV | < -0.25
18 | GCDTLTRLFARCRSSLARDR | < -0.25
19 | GCEFDTRKLALFERITG | < -0.25
21 | GCFLH | < -0.25
22 | GCFLRPPGSFQELLLISVVI | < -0.25
23 | GCGLRAAC | < -0.25
24 | GCGRG | < -0.25
25 | GCGSYEKNANP | < -0.25

# (listing goes on)

row,Substance,growth estimate
1,GCGTPV,< -0.25
2,GCGVF,< -0.25
3,GCHLDWRLEKCNREGTHFDR,< -0.25
4,GCIG,< -0.25
5,GCKFIRKGRPMPQVITDRSK,< -0.25
6,GCKGLKAHSVGSGDGCSPIS,< -0.25
7,GCKGSGAPTAASIVGVSNGK,< -0.25
8,GCKPLL,< -0.25
9,GCLKF,< -0.25
10,GCLLRSSLCHMGSVLDERFC,< -0.25
11,GCMSTVSNIQW,< -0.25
12,GCPGAGRSL,< -0.25
13,GCPRPNVCTGFL,< -0.25
14,GCPVNFEYYGLL,-0.197
15,GCQVELPRVDYLSLWGRCVT,< -0.25
16,GCQVPNRLFCLLRGSDSY,< -0.25
17,GCRAHNYTSECKGMAN,< -0.25
18,GCRKFGRRAALTRMTMAVSC,< -0.25
19,GCRPR,< -0.25
20,GCRRNSSQERQAPPFCGQSR,< -0.25
21,GCSSLVWRGLP,< -0.25
22,GCT,< -0.25
23,GCTGGSGGGAIIV,< -0.25
24,GCTTIEVEL,< -0.25
25,GCVTLGRQQRRRTLVSLQAV,< -0.25

row,Substance,growth estimate
1,GCVVLMLALENDMDGSSGTC,< -0.25
2,GCYIRNAAAIGLTVVGRRLR,< -0.25
3,GCYSRRRSMAGDQQVGRRFR,< -0.25
4,GCYT,< -0.25
5,GDAISVNNDESETTIRLWHS,< -0.25
6,GDAPLRILVTRLLLGNACMG,< -0.25
7,GDAPSRGGQLRAYRTIIIRG,< -0.25
8,GDCTDYHSKVRQTSCYGATY,< -0.25
9,GDEVR,< -0.25
10,GDFIPEVMDRVPFPHLCYSP,< -0.25
11,GDFL,< -0.25
12,GDGTCSPSVPSY,< -0.25
13,GDHDILNWATNQAALCSPRT,0.0176
14,GDHRLPTRLIADSLTDGGM,< -0.25
15,GDIFRDGNHF,< -0.25
16,GDIGQRAEGKPAWDGVGAVP,< -0.25
17,GDILDLDLIGGGTRLVLGA,< -0.25
18,GDIQVWKSIPLVGGN,< -0.25
19,GDLADVYVGHSLRTGSRVHY,< -0.25
20,GDLCGAIKRCAYVRDYISHV,< -0.25
21,GDLDL,< -0.25
